No constants are given. Whether binding was seen depends on the method and setting. Binding seen in cells or lysates may run through a third protein. Binding can be weak; no strength is given. Tags and fused reporters may be left off the sequences shown.

This passage reports binding results from article PMC8602864, “The Molecular Assembly State of Drp1 Controls its Association With the Mitochondrial Recruitment Receptors Mff and MIEF1/2” (Frontiers in Cell and Developmental Biology, 2021).

The target in this assay is T1, MIEF2-V5 (UniProt Q96C03).
T1 sequence: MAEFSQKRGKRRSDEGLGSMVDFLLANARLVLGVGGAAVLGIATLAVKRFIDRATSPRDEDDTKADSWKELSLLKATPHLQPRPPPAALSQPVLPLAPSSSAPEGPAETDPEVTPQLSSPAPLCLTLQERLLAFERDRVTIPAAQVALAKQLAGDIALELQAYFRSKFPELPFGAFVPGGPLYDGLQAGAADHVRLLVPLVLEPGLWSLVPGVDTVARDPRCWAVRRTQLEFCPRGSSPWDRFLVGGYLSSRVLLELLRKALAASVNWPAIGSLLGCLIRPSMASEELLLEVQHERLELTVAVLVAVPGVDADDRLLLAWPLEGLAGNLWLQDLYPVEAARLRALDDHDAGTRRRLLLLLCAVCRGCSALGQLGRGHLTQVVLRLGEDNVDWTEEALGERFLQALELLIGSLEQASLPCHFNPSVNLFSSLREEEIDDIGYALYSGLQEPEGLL
As to the kind of experiment: co-IP; Drp1-/- 293T cells co-transfected with Drp1-WT or a Drp1 mutant and MIEF1-V5, MIEF2-V5 or Myc-Mff; in vivo cross-linking with 1% formaldehyde for 10 min; lysis in 1% NP-40; anti-V5 or anti-Myc agarose beads 2 h at room temperature; Western blot. On the technique in general: In western blotting, separated proteins are transferred to a membrane and probed.

Regarding Drp1-K38A (human), the binding result is “binds”.
